# Library compounds against nucleic acid targets

Oligonucleotides screened, 5′ to 3′:
T1: PreQ1 riboswitch RNA pseudoknot, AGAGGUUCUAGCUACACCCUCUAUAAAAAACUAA. From B. subtilis. Hit rate about 0.7% of about 24,000 compounds.
T2: TPP riboswitch RNA three-way junction, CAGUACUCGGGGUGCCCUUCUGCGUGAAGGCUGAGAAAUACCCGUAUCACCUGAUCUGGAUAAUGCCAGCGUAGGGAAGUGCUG. Hit rate about 0.7% of about 24,000 compounds.
T3: SAM-II riboswitch RNA pseudoknot, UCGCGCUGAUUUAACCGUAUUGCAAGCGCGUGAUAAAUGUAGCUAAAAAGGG. Hit rate about 1% of about 21,000 compounds.

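The test is a small-molecule microarray: each compound is printed twice on a reactive slide, and binding shows as fluorescence of the labelled oligonucleotide after washing. For the PreQ1, TPP and SAM-II riboswitches the laboratory earlier reported (doi:10.1038/s41467-019-09493-3) 1 µM RNA, 2 h, and a rule that included a mean Z-score above 3 (spot signal-to-noise against the whole library), a score well above that on a control array, and duplicate spots agreeing (coefficient of variation under 100). The data file gives only the calls; its cut-offs may differ, and compounds hitting several targets are kept. The calls come from the array alone, and fixing a compound to the slide can hide its binding.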
A compound is marked hit if it was called a hit and no hit if it was screened but was not.
This is an unselected part of the compounds tested.
A target missing from an entry has no call listed here.
A dash means that no call is listed here.

* CC(C)n1cnc2c(=S)nc[nH]c21 | T1: no hit; T2: no hit; T3: no hit
* CNC1CCCN(c2c(F)cc3c(=O)c(C(=O)O)cn(C4CC4)c3c2OC)C1 (stereo not given) | T1: no hit; T2: no hit; T3: no hit
* COc1ccc(Br)cc1CNCCNC(=O)c1nonc1N | T1: no hit; T2: no hit
* Cn1c(=O)c2c(c3ccccc31)OC(N)=C(C#N)C21C(=O)N(Cc2cccc(F)c2)c2ccccc21 (stereo not given) | T1: no hit; T2: no hit; T3: no hit
* COc1ccc(C2C(C#N)=C(N)Oc3cc(C)n(CC4CCCO4)c(=O)c32)cc1 (stereo not given) | T1: no hit; T2: no hit; T3: no hit
* CCSc1nc(N)c(C#N)c(-c2ccccc2Cl)c1C#N | T1: no hit; T2: no hit; T3: no hit
* c1cc(C2NCCc3[nH]cnc32)c2cc[nH]c2c1 (stereo not given) | T1: no hit; T2: no hit; T3: no hit
* Cc1[nH]c2ccccc2c1CCNCc1ccc(C=CC(=O)NO)cc1 | T1: no hit; T2: no hit; T3: no hit
* COc1c(C)cnc(Cn2cnc3c(Cl)nc(N)nc32)c1C | T1: no hit; T2: no hit; T3: no hit
* CN(Cc1ccccc1CN1CCCC1)C(=O)C1CC2(CCNCC2)CN1C (stereo not given) | T1: no hit; T2: no hit; T3: no hit
* COc1ccc(Br)cc1C1C(C#N)=C(N)Oc2cc(C)oc(=O)c21 (stereo not given) | T1: no hit; T2: no hit; T3: no hit
* Cl.OC(COc1ccc2oc3c(c2c1)CCCC3)CN1CCN(c2ccccc2)CC1 (stereo not given) | T1: no hit; T2: no hit; T3: no hit
* CCN1CC2(CCN(C(=O)C3CNCC(=O)N3)CC2)OC1=O (stereo not given) | T1: no hit; T2: no hit; T3: no hit
* Cc1ccc(NC(=O)Cn2c(-c3nonc3N)nc3ccccc32)cc1Br | T1: no hit; T2: no hit; T3: no hit
* COc1ccc(NC2CCCN(C(=O)c3cnc(-c4cccnc4)nc3)C2)cc1 (stereo not given) | T1: no hit; T2: no hit; T3: no hit
* CC1(CN2CCC(n3c(=O)[nH]c4ccccc43)CC2)OCc2ccccc2-n2cccc21 (stereo not given) | T1: no hit; T2: no hit; T3: no hit
* Cc1ccc(-n2nc(C3CC3)nc2[C@H](O)c2ccccc2)cc1C | T1: no hit; T2: no hit; T3: no hit
* COc1ccc(S(=O)(=O)N2CCN(c3cc(C)nc(Nc4ccc(C)cc4)n3)CC2)cc1C | T1: no hit; T2: no hit
* CNCCNC(=O)c1c(C)c(C)cc(C)c1C | T1: no hit; T2: no hit; T3: no hit
* c1cnc2cc3c(cc2n1)C1CNCC3C1 | T1: no hit; T2: no hit; T3: no hit
* CSc1nc(N)nc(SCc2ccc(Cl)nc2)c1C#N | T1: no hit; T2: no hit; T3: no hit
* Clc1ccc(C(Cc2ccccc2)NC2CN3CCC2CC3)cc1 (stereo not given) | T1: no hit; T2: no hit
* CCCCCCCNC1CC(=O)N(c2ccc(Cl)cc2)C1=O (stereo not given) | T1: no hit; T2: no hit; T3: no hit
* Nc1cc(-c2ccc(Cl)cc2)nn1S(=O)(=O)c1ccc(Br)cc1 | T1: no hit; T2: no hit; T3: no hit
* CC[C@H](C)C(=O)O[C@H]1C[C@H](O)C=C2C=C[C@H](C)[C@H](CC[C@@H](O)C[C@@H](O)CC(=O)O)[C@H]21 | T1: no hit; T2: no hit; T3: no hit
* Cc1nc2sccn2c(=O)c1N | T1: no hit; T2: no hit; T3: no hit
* CCC1=NOC(Cn2nc(C3CCNCC3)n(Cc3ccccc3)c2=O)C1 (stereo not given) | T1: no hit; T2: no hit; T3: no hit
* O=c1[nH]nc(CCCO)n1C1CCCC1 | T1: no hit; T2: no hit; T3: no hit
* Cc1ccccc1SC1CCN(C(=O)C2CNCC(=O)N2)CC1 (stereo not given) | T1: no hit; T2: no hit; T3: no hit
* Cc1cc2oc3c(c(=O)c2cc1C)C1(C(=O)N(C)c2ccccc21)N(CCO)C3=O (stereo not given) | T1: no hit; T2: no hit
* Nc1nc(CCCNC(=O)C2CCCN(Cc3ccco3)C2)cs1 (stereo not given) | T1: no hit; T2: no hit; T3: no hit

Repeated from the top, 4 entries:

Compound,T1,T2,T3
CC(C)n1cnc2c(=S)nc[nH]c21,no hit,no hit,no hit
CNC1CCCN(c2c(F)cc3c(=O)c(C(=O)O)cn(C4CC4)c3c2OC)C1 (stereo not given),no hit,no hit,no hit
COc1ccc(Br)cc1CNCCNC(=O)c1nonc1N,no hit,no hit,-
Cn1c(=O)c2c(c3ccccc31)OC(N)=C(C#N)C21C(=O)N(Cc2cccc(F)c2)c2ccccc21 (stereo not given),no hit,no hit,no hit

From ROBIN, a set of small-molecule microarray screens (doi:10.1002/anie.202211358).